Measured values published in patent publication US11260108B2, “MIC-1 and GLP-1 for use in the treatment of obesity” (Novo Nordisk A/S, priority 2017, dated 2022).
At least one structure is not confirmed: it was looked up by name or label, or the drawing left a doubt.

System: male obese Sprague Dawley rats
Assay: Body weight lowering in obese rat, MIC-1-HSA in combination with liraglutide (Example 1)
Type: in vivo
[1] = Lira 100 μg/kg, change day 0 to day 26
[2] = Lira 100 μg/kg, day 26 vs vehicle group

CCCCCCCCCCCCCCCC(=O)N[C@@H](CCC(=O)NCCCC[C@H](NC(=O)[C@H](C)NC(=O)[C@H](C)NC(=O)[C@H](CCC(N)=O)NC(=O)CNC(=O)[C@H](CCC(=O)O)NC(=O)[C@H](CC(C)C)NC(=O)[C@H](Cc1ccc(O)cc1)NC(=O)[C@H](CO)NC(=O)[C@H](CO)NC(=O)[C@@H](NC(=O)[C@H](CC(=O)O)NC(=O)[C@H](CO)NC(=O)[C@@H](NC(=O)[C@H](Cc1ccccc1)NC(=O)[C@@H](NC(=O)CNC(=O)[C@H](CCC(=O)O)NC(=O)[C@H](C)NC(=O)[C@@H](N)Cc1cnc[nH]1)[C@@H](C)O)[C@@H](C)O)C(C)C)C(=O)N[C@@H](CCC(=O)O)C(=O)N[C@@H](Cc1ccccc1)C(=O)N[C@H](C(=O)N[C@@H](C)C(=O)N[C@@H](Cc1c[nH]c2ccccc12)C(=O)N[C@@H](CC(C)C)C(=O)N[C@H](C(=O)N[C@@H](CCCNC(=N)N)C(=O)NCC(=O)N[C@@H](CCCNC(=N)N)C(=O)NCC(=O)O)C(C)C)[C@@H](C)CC)C(=O)O [Lira]
Body weight [% of study start] Study end (Lira 100 μg/kg SC QD day 0-26): 90 % of study start
Body weight [% of study start] Delta 0-26 [1]: −10.0 % of study start
Body weight [gram] Delta 0-26 [1]: −82 gram
Body weight [% of study start] vs vehicle [2]: −8.8 % of study start
Body weight [gram] vs vehicle [2]: −72 gram
reduced body weight compared to vehicle (liraglutide monotherapy 0.1 mg/kg, day 26): 8.8%
